Results are given in words; binding and its absence hold for the method and conditions named. In cells and extracts the contact can be indirect. For part of these data: Binding can be weak; no strength is given. Sequences can lack the tags named with a protein.
What was measured:
[1] = target: T1, NECAB2-Flag (mouse) (UniProt Q91ZP9); test: co-IP; transiently transfected HEK293 cells lysed in NETT buffer (50 mM Tris-HCl, 150 mM NaCl, 0.1 mM EDTA, 1% Triton X-100); supernatant with mouse anti-Myc, anti-EGFP or anti-Flag antibody overnight at 4°C, protein A/G agarose 4 h, 5 washes; immunoblot; normal mouse IgG and tag-only vector as controls
T1 sequence: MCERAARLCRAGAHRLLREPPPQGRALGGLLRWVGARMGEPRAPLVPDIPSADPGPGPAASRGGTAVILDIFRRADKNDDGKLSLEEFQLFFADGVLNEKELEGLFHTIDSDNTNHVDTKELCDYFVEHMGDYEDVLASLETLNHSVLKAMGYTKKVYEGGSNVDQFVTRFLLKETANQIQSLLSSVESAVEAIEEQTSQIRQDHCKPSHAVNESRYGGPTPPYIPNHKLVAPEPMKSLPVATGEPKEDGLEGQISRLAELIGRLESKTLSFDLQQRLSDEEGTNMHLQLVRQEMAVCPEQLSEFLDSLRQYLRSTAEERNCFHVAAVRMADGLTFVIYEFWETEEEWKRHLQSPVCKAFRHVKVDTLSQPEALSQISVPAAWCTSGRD

[2] = target: T2, Flag-ABM (antibiotic biosynthesis monooxygenase domain of NECAB2) (mouse) (UniProt Q91ZP9); test: as above
T2 sequence: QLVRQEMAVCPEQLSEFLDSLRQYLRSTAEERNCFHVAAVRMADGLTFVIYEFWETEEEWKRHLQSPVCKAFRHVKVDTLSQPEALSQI

binding [1] | binding [2] | Substance
no binding | – | EGFP-EF (EF-hand domain of NECAB2) (mouse) (domain or fragment)
binds | no binding | EGFP-NHR (NECAB homology region of NECAB2) (mouse) (domain or fragment)
